Among all 340,000 compounds or so, about 6,200 (1.8%) were called active. Inconclusive results, whose numbers are uncertain, are shown with a selection of clear calls. Calls follow the shape of the dose curve; as a rule, active = well fitted activation curve with a large enough effect; inconclusive = small, poorly fitted or top-dose-only effect; inactive = no such curve, though single readings can be large or run the other way. Where the call is inconclusive, the potency comes from a doubtful curve fit.
test: A quantitative high throughput screen for small molecules that induce DNA re-replication in SW480 colon adenocarcinoma cells.; also: nearly all actives have a fitted effect of over 55% in size; as to re-replication activation: % of control where 0% means no effect; details: Hoechst DNA content imaging, 48 h; re-replication activation: at 46.1 µM (top of the series) unless noted
How it was run: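 Image-based DNA-content assay: after two days of treatment, nuclei were labelled with the DNA dye Hoechst and imaged, and hits were compounds raising the count of nuclei showing high fluorescence intensity.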
Potency is read from the fitted curve at half-maximal effect.

| SMILES | Potency | re-replication activation |
| --- | --- | --- |
| Cc1cccc(N2CCN(c3nc(C)cc(C)c3C#N)CC2C)c1 (centres undefined) | inconclusive: 18.4 µM [activator, single point] |  |
| C=CCn1c(SCC(=O)N2CCc3ccccc3C2)nc2sc(C)c(C)c2c1=O | inconclusive: 29.1 µM [activator, single point] |  |
| NC(=O)c1nsc(C(=O)N(c2ccccc2)C(C(=O)NC2CCCCC2)c2ccc(O)cc2)c1N (centres undefined) | inconclusive: 23.1 µM [activator, partial curve, poor fit] |  |
| COC(=O)c1ccc2c(=O)n(Cc3ccc(C(=O)NCCCN4CCOCC4)cc3)c(=S)[nH]c2c1 | inconclusive: 3.16 µM [activator, single point] |  |
| Cc1ccc(NC(=O)c2cccc(Oc3ccc([N+](=O)[O-])cc3)c2)c(C(=O)O)c1 |  | inactive: 4.54% |
| C/C(=N\NC(=O)CCc1ccccc1)C1C(=O)c2ccccc2C1=O | inconclusive: 20.6 µM [activator, single point] |  |
| Cc1cc2cc3c(cc2nc1SCC(=O)Nc1ccccc1)CCC3 | inconclusive: 0.326 µM [activator, full curve, poor fit] |  |
| COCc1ccc(CN2CCCC(C(=O)Nc3ccc(-c4cccc(OC)c4)cc3)C2)o1 (centres undefined) | inconclusive: 29.1 µM [activator, single point] |  |
| Cc1cc(C)c2nc(N(CCCN(C)C)C(=O)c3ccc(S(=O)(=O)N4CC(C)OC(C)C4)cc3)sc2c1 (centres undefined) | inconclusive: 29.1 µM [activator, single point] |  |
| CCCC(=O)NC(c1cccs1)c1cc([N+](=O)[O-])c2cccnc2c1O (centres undefined) | inconclusive: 18.4 µM [activator, single point] |  |
| CCc1ccc(NC2=CC(=O)CC(c3ccco3)C2)cc1 (centres undefined) | inconclusive: 20.6 µM [activator, single point] |  |
| Cc1ccc2nsnc2c1S(=O)(=O)N1CCOCC1 |  | inactive: -4.94% |
| NC(=O)c1sc2nc3c(c(-c4cccs4)c2c1N)CCCCC3 | inconclusive: 25.9 µM [activator, single point] |  |
| O=c1cc(-c2ccccc2)nc2cc(-c3ccc(F)cc3)[nH]n12 | inconclusive: 6.51 µM [activator, single point] |  |
| COc1cc(C#Cc2ccc3cc(CCCO)oc(=O)c3c2)cc(OC)c1 | active: 3.26 µM |  |
| CCn1c(SCC(=O)Nc2ccc3c(c2)OCO3)nnc1-c1cnccn1 |  | inactive: -10.8% |
| CCc1ccc2nc(N(CCCN(C)C)C(=O)c3ccc(S(=O)(=O)N(C)C4CCCCC4)cc3)sc2c1 | inconclusive: 3.26 µM [activator, single point] |  |
| CC(=O)C(C(C)=O)C(NC(=O)c1cccnc1)(C(F)(F)F)C(F)(F)F | inconclusive: 20.6 µM [activator, single point] |  |
| O=C1NC2c3c(Cl)sc(Cl)c3C(=O)C2O1 (centres undefined) | inconclusive: 13 µM [activator, partial curve, poor fit] |  |
| Cc1ccc(N2CC(C(=O)Nc3ccc(N4CCOCC4)cc3)CC2=O)cc1C (centres undefined) | inconclusive: 18.4 µM [activator, single point] |  |
| Cc1cc(S(=O)(=O)NCc2ccccc2)ccc1OCC(=O)NCc1ccccn1 |  | inactive: -1.72% |
| CCOc1cc(NC(=S)NCCOC)c(OCC)cc1NC(=O)c1ccco1 |  | inactive: 4.91% |
| O=C(O)CCCCCN1C(=O)/C(=C/c2cn(-c3ccccc3)nc2-c2cccs2)SC1=S | inconclusive: 14.6 µM [activator, single point] |  |

Look-ups from the results shown:
Potency with Cc1ccc(N2CC(C(=O)Nc3ccc(N4CCOCC4)cc3)CC2=O)cc1C (centres undefined) reads inconclusive: 18.4 µM [activator, single point]
Potency with CCc1ccc(NC2=CC(=O)CC(c3ccco3)C2)cc1 (centres undefined) reads inconclusive: 20.6 µM [activator, single point]
re-replication activation with CCn1c(SCC(=O)Nc2ccc3c(c2)OCO3)nnc1-c1cnccn1 reads inactive: -10.8%
Potency with Cc1cc(C)c2nc(N(CCCN(C)C)C(=O)c3ccc(S(=O)(=O)N4CC(C)OC(C)C4)cc3)sc2c1 (centres undefined) reads inconclusive: 29.1 µM [activator, single point]
Potency with O=c1cc(-c2ccccc2)nc2cc(-c3ccc(F)cc3)[nH]n12 reads inconclusive: 6.51 µM [activator, single point]

(further entries)

| SMILES | Potency | re-replication activation |
| --- | --- | --- |
| CC1CCN(Cc2ccc(NC(=O)C3CCN(c4nnc(-n5cccc5)s4)CC3)cc2)CC1 | inconclusive: 7.31 µM [activator, partial curve, poor fit] |  |
| S=c1[nH]nc(-c2ccc(Cl)cc2)n1/N=C/c1cccs1 | active: 9.2 µM |  |
| CCOc1ccccc1N1C(=O)CC(Sc2n[nH]c(-c3ccccc3)n2)C1=O (centres undefined) | inconclusive: 23.1 µM [activator, single point] |  |
| COc1ccc(CN(CCC(c2ccccc2)c2ccc(OC(C)C)cc2)C(=O)CCl)cc1OC (centres undefined) | active: 3.66 µM |  |
| O=C(NC1CCc2ccccc21)c1cc(COc2cncc(Cl)c2)on1 (centres undefined) |  | inactive: 10.5% |
| CCOC(=O)N1CCN(C(=O)C2CC(=O)N(c3ccc(C)cc3)C2)CC1 (centres undefined) | inconclusive: 29.1 µM [activator, single point] |  |
| C/C(=N\NC(=S)Nc1cc(S(=O)(=O)N2CCOCC2)ccc1Cl)c1ccccc1F | inconclusive: 23.1 µM [activator, partial curve, poor fit] |  |
| CCCOc1cccc(C(=O)NCCNC(=O)c2ccc(C)nc2)c1 |  | inactive: -10.7% |
| Cc1ccc(C(=O)OCC(=O)c2ccc(S(=O)(=O)N3CCCCC3)cc2)o1 |  | inactive: -0.731% |
| CN(Cc1ccccc1)C(=O)COC(=O)CNS(=O)(=O)c1ccc2ccccc2c1 |  | inactive: -2.57% |
| CCc1ccc2c(c1)cc(CN(Cc1ccco1)C(C)=O)c1nnnn12 | inconclusive: 29.1 µM [activator, single point] |  |
| Cc1cc(Br)ccc1NCc1ccccn1 | active: 18.4 µM |  |
| CCOc1ccc(Cl)cc1S(=O)(=O)N1CCN(c2ccc(C)c(C)c2)CC1 | inconclusive: 29.1 µM [activator, single point] |  |
| Cc1noc(C)c1NC(=O)N(C)C[C@@H]1Oc2ccc(NC(=O)C3CCCCC3)cc2C(=O)N([C@@H](C)CO)C[C@H]1C |  | inactive: -0.558% |
| CC1CC(C)CN(C(=O)C(Cc2ccccc2)NC(=O)c2ccccc2)C1 (centres undefined) | inconclusive: 10.3 µM [activator, partial curve, poor fit] |  |
| Cc1cccc(CC(=O)NC2CCN(C)CC2)c1 |  | inactive: -4.95% |
| Cc1c(CC(=O)NC(C)C)c(=O)oc2cc3c(cc12)CCC(C)(C)O3 |  | inactive: -2.02% |
| COc1cccc2sc(N(CCCN(C)C)C(=O)C(c3ccccc3)c3ccccc3)nc12 | inconclusive: 9.2 µM [activator, partial curve, poor fit] |  |
| CN(C)/C=N/c1sc2c(c1C#N)CCCCC2 |  | inconclusive: -695% [activator] |
| CCC12CCC3c4ccc(O)cc4CCC3C1CC(O)C2O (centres undefined) | inconclusive: 29.1 µM [activator, single point] |  |
| O=S(=O)(Nc1ncn[nH]1)c1ccc(Cl)cc1 |  | inactive: -4.95% |
| COc1cccc(-c2noc(N)c2C#N)c1 | inconclusive: 29.1 µM [activator, single point] |  |
| O=C(COc1ccccc1Cl)Nc1ccc(N2CCCC2)cc1 | active: 16.4 µM |  |

| SMILES | Potency | re-replication activation |
| --- | --- | --- |
| Cc1cc(C)c(O)c(-c2cc(C(=O)Nc3ccc(S(=O)(=O)N4CCOCC4)cc3)[nH]n2)c1 | inconclusive: 23.1 µM [activator, single point] |  |
| COc1ccc(CCn2c(O)cc3nn(-c4nc5ccccc5s4)c(=O)c-3c2C)cc1 | inconclusive: 29.1 µM [activator, single point] |  |
| O=C1Nc2ccccc2/C1=C/C(=O)c1cccs1 | inconclusive: 18.4 µM [activator, single point] |  |
| Cc1cc(C)c2nc(NNC(=O)c3ccc(S(=O)(=O)N4CCCCC4)cc3)sc2c1 | inconclusive: 18.4 µM [activator, partial curve, poor fit] |  |
| Cc1c(C(=O)N(C)C2CCCCC2)sc2ncnc(N3CCN(c4ccccc4)CC3)c12 | inconclusive: 29.1 µM [activator, single point] |  |
| CCC(COC(=O)Nc1cccc(C)c1C)NC(=O)OCC(C)C (centres undefined) |  | inactive: -2.19% |
| O=C(/C=C/c1ccc(N2CCC(c3ccccc3)=N2)cc1)c1ccccc1 | inconclusive: 18.4 µM [activator, partial curve, poor fit] |  |
| COc1ccc2oc(C(=O)OCC(=O)/C(C#N)=C(\C)N)c(C)c2c1 | inconclusive: 0.0046 µM [activator, full curve, poor fit] |  |
| CCOC(=O)c1ccc(N2CCOCC2)c(NC(=O)c2c(-c3ccccc3)noc2C)c1 | active: 20.6 µM |  |
| CCn1c(SCc2nc3scc(-c4ccccc4)c3c(=O)[nH]2)nnc1-c1cccs1 | inconclusive: 0.058 µM [activator, full curve, poor fit] |  |
| Cc1cc(N2CCOCC2)nc2ccc(NC(=O)CCC(=O)N3CCCCC3)cc12 |  | inactive: 6.46% |
| CO/N=C/NC(=O)NOCc1ccc(Cl)cc1Cl |  | inactive: -4.6% |
| CCN1CCCC1CN(Cc1cc2ccc(C)cc2[nH]c1=O)C(=S)Nc1ccccc1C(=O)OC (centres undefined) | inconclusive: 29.1 µM [activator, partial curve, poor fit] |  |
| Nc1nc(SCC(=O)NCc2ccco2)[nH]c(=O)c1-c1ccccc1 | inconclusive: 23.1 µM [activator, single point] |  |
| CCCCn1c(SCC(=O)O)nc2ccccc21 |  | inactive: 9.82% |
| CCCNC(=O)c1cn(CC)c2cc(N3CCN(C)CC3)c(F)cc2c1=O |  | inactive: -1.97% |
| C/C(CC(=O)Nc1cc(C)ccn1)=N\NC(=O)c1cccc(C)c1O | active: 11.6 µM |  |
| Cc1ccc(C)c(NC(=O)CSc2sc3c(O)cc(=O)[nH]c3c2C#N)c1 | inconclusive: 3.66 µM [activator, single point] |  |
| Cn1nc(-c2ccccc2)c(CSc2ccccc2)c1Cl | inconclusive: 18.4 µM [activator, single point] |  |
| COc1ccccc1CNS(=O)(=O)c1cccc2nsnc12 | inconclusive: 29.1 µM [activator, single point] |  |
| Cc1csc(NC(=O)CSc2nc(C(C)C)nc3ccccc23)n1 |  | inactive: 26.1% |
| Cc1onc(-c2ccccc2)c1C(=O)NNC(=O)c1ccccc1O | inconclusive: 0.116 µM [activator, full curve, poor fit] |  |
| CC(C)[C@@H](CSc1ccccc1)N1CCN(Cc2ccccc2)CCC1=O |  | inactive: 9.6% |

— PubChem BioAssay AID624297 (National Center for Advancing Translational Sciences (NCATS), 2012)
